The source gives many values for each of these; only a part stands here.
Test system: PBMC of RRMS patients
Experiment: Gene expression microarray analysis (HG-U133A-2) of PBMC from RRMS patients treated with LAQ, ancillary study to ALLEGRO
Assay type: in vivo, human
Source text: The goal of this ancillary study was to characterize gene expression changes and corresponding biological mechanisms induced in PBMC of RRMS patients by LAQ treatment. According to ALLEGRO clinical trial inclusion criteria, 25 patients were randomly assigned to receive LAQ (n=13, age 38.8±2.3 years, female/male ratio: 8/5) or placebo (n=12, age 37.2±3.4 years, female/male ratio: 8/4).
Peripheral blood samples were obtained from RRMS patients at baseline before start of LAQ treatment or placebo, after 0, 1, 6 and 24 month of treatment (visit 0, 1, 6 and 7 according to ALLEGRO clinical trial protocol correspondently) for gene microarray analysis.
Briefly, 1) Peripheral blood mononuclear cells (PBMC) were obtained from RRMS patients that participated in ALLEGRO and were treated daily with 0.6 mg LAQ or placebo. PBMC were subjected for gene expression analysis (HU-133A-2-Affymatrix arrays) at baseline and at 1 and 6 months of LAQ treatment; 2) Data was analyzed by Partek Genomics Solution software. Most informative genes (MIGs) were defined as those that differentiated between groups with p<0.01. Gene functional annotation, enrichment and pathway analysis were performed by Ingenuity software. For each time point, genes that changed in placebo group were excluded from further analysis; and 3) Verification of LAQ related mechanism was performed by Western blot.
PBMC were extracted from 15 ml peripheral blood, separated by Ficoll-Hypaque gradient. Total RNA was extracted using both Trizol (Invitrogen, USA) and Phase-Lock-Gel columns (Eppendorf, Germany) including a DNase digestion step. RNA integrity was assessed by RNA Experion automated electrophoresis system (Bio-Rad Laboratories, Hercules, Calif.).
Probe synthesis using 3 μg total RNA, hybridization, detection, and scanning was performed according to the standard Affymetrix, Inc. USA protocols; cDNA was synthesized using the Two-Cycle cDNA Synthesis Kit (Affymetrix, Inc., USA), and in-vitro transcription performed with the GeneChip IVT Labeling Kit (Affymetrix, Inc., USA). The biotin-labeled IVT-RNA was hybridized to HG-U133A-2 arrays containing 18,400 gene transcripts, each corresponding to 14,500 well-annotated human genes, washed in a GeneChip Fluidics Station 450 (Hewlett Packard, USA, GeneArray-™ scanner G2500A) and scanned according to the manufacturer's protocol (Affymetrix, Inc., USA).
Data analysis was performed on Partek Genomics Solution software (www.partek.com; Partek Incorporated, St. Louis, Mo.). Expression values were computed from raw CEL files by applying the Robust Multi-Chip Average (RMA) background correction algorithm. RMA correction included: 1) values background correction; 2) quintile normalization; 3) log 2 transformation; and 4) median polish summarization. The ANOVA, Repeated Measures and correlation analysis implicated in Partek software ware applied to evaluate LAQ effects. Most informative genes MIGs were defined as those that differentiated between experimental groups with p<0.01. All p-values were calculated for False Discovery Rate (FDR) multiple test correction at p=0.05.
Additionally, significance of individual genes was tested by parametric T-test and non parametric Mann-Whitney test using Bootstrapping approach based on repeated permutations of the data with 5% FDR for multiple testing.
Gene functional annotation, enrichment, and pathway analyses to identify the leading biological pathways that operated under LAQ treatment were performed by Ingenuity Pathways Analysis software (www.ingenuity.com).
ANOVA analysis was used to compare PBMC gene expression after 1, 6 or 24 month of LAQ treatment with baseline gene expression.
For each time point inventors performed analysis source of variation in dataset. (FIG. 1). Age, gender and batch effects were considered as confounders regarding LAQ or Placebo related changes. For each time point genes associated with Placebo effect were evaluated and excluded from further analysis. […]

CCN(C(=O)c1c(O)c2c(Cl)cccc2n(C)c1=O)c1ccccc1 [LAQ, 5-chloro-N-ethyl-4-hydroxy-1-methyl-2-oxo-N-phenyl-1,2-dihydroquinoline-3-carboxamide]
Fold-Change (4.0 vs. 0.0) (gene ADAMTSL2): −1.188
Fold-Change (4.0 vs. 0.0) (gene ADARB1, after six months of LAQ): −1.229
Fold-Change (4.0 vs. 0.0) (gene ADCYAP1R1, six months of treatment): −1.151
Fold-Change (4.0 vs. 0.0) (gene ADH6, PBMC, six months of LAQ treatment): −1.114
Fold-Change (4.0 vs. 0.0) (gene ADRA1A, after six months of LAQ): −1.14
Fold-Change (4.0 vs. 0.0) (gene ADRBK1, six months of treatment): −1.148
Fold-Change (4.0 vs. 0.0) (gene AGTR2, six months of treatment): −1.144
Fold-Change (4.0 vs. 0.0) (gene AGXT, after six months of LAQ): −1.143
Fold-Change (4.0 vs. 0.0) (gene AHCTF1, after six months of LAQ): −1.304
Fold-Change (4.0 vs. 0.0) (gene AHI1): −1.188
Fold-Change (4.0 vs. 0.0) (gene AKAP4, PBMC, six months of LAQ treatment): −1.121
Fold-Change (4.0 vs. 0.0) (gene AKAP5, after six months of LAQ): −1.124
Fold-Change (4.0 vs. 0.0) (gene AKR1B10, six months of treatment): −1.156
Fold-Change (4.0 vs. 0.0) (gene ALDH1A2, after six months of LAQ): −1.39
Fold-Change (4.0 vs. 0.0) (gene ALDOB, PBMC, six months of LAQ treatment): −1.105
Fold-Change (4.0 vs. 0.0) (gene ALPP /// ALPPL2): −1.189
Fold-Change (4.0 vs. 0.0) (gene ALX1, six months of treatment): −1.157
Fold-Change (4.0 vs. 0.0) (gene AMHR2, after six months of LAQ): −1.253
Fold-Change (4.0 vs. 0.0) (gene ANGPTL3, after six months of LAQ): −1.1414
Fold-Change (4.0 vs. 0.0) (gene ANK2, after six months of LAQ): −1.143
Fold-Change (4.0 vs. 0.0) (gene ANKLE2, six months of treatment): −1.152
Fold-Change (4.0 vs. 0.0) (gene ANKRD34C, after six months of LAQ): −1.125
Fold-Change (4.0 vs. 0.0) (gene ANKRD53, after six months of LAQ): −1.137
Fold-Change (4.0 vs. 0.0) (gene ANKS1B, six months of treatment): −1.156
Fold-Change (4.0 vs. 0.0) (gene ANO2, six months of treatment): −1.147
Fold-Change (4.0 vs. 0.0) (gene ANO3, six months of treatment): −1.152
Fold-Change (4.0 vs. 0.0) (gene ANP32A /// ANP32C /// ANP32D /// LOC723972, PBMC, six months of LAQ treatment): −1.074
Fold-Change (4.0 vs. 0.0) (gene AOC3, after six months of LAQ): −1.13
Fold-Change (4.0 vs. 0.0) (gene AP4E1, six months of treatment): −1.149
Fold-Change (4.0 vs. 0.0) (gene APBB2, PBMC, six months of LAQ treatment): −1.121
Fold-Change (4.0 vs. 0.0) (gene APBB2, after six months of LAQ): −1.14
Fold-Change (4.0 vs. 0.0) (gene APOBEC2, six months of treatment): −1.16
Fold-Change (4.0 vs. 0.0) (gene AQP5, after six months of LAQ): −1.228
Fold-Change (4.0 vs. 0.0) (gene ARHGAP1, after six months of LAQ): −1.254
Fold-Change (4.0 vs. 0.0) (gene ARHGDIA, after six months of LAQ): −1.254
Fold-Change (4.0 vs. 0.0) (gene ARHGEF15, six months of treatment): −1.155
Fold-Change (4.0 vs. 0.0) (gene ARHGEF16, six months of treatment): −1.16
Fold-Change (4.0 vs. 0.0) (gene ARL4D): −1.177
Fold-Change (4.0 vs. 0.0) (gene ARSD, six months of treatment): −1.153
Fold-Change (4.0 vs. 0.0) (gene ARSJ, after six months of LAQ): −1.128
Fold-Change (4.0 vs. 0.0) (gene ARVCF, PBMC, six months of LAQ treatment): −1.117
Fold-Change (4.0 vs. 0.0) (gene ASAP3): −1.188
Fold-Change (4.0 vs. 0.0) (gene ASCL3, after six months of LAQ): −1.243
Fold-Change (4.0 vs. 0.0) (gene ASIP, after six months of LAQ): −1.231
Fold-Change (4.0 vs. 0.0) (gene ATAD4): −1.189
Fold-Change (4.0 vs. 0.0) (gene ATN1, after six months of LAQ): −1.137
Fold-Change (4.0 vs. 0.0) (gene ATP1A2, six months of treatment): −1.147
Fold-Change (4.0 vs. 0.0) (gene ATP1B1, after six months of LAQ): −1.511
Fold-Change (4.0 vs. 0.0) (gene ATP2A2, after six months of LAQ): −1.226
Fold-Change (4.0 vs. 0.0) (gene ATP6V1B1, PBMC, six months of LAQ treatment): −1.115
Fold-Change (4.0 vs. 0.0) (gene ATXN3L, after six months of LAQ): −1.127
Fold-Change (4.0 vs. 0.0) (gene AZGP1, after six months of LAQ): −1.229
Fold-Change (4.0 vs. 0.0) (gene B3GALT1, after six months of LAQ): −1.143
Fold-Change (4.0 vs. 0.0) (gene B4GALT1, after six months of LAQ): −1.231
Fold-Change (4.0 vs. 0.0) (gene BBOX1, six months of treatment): −1.153
Fold-Change (4.0 vs. 0.0) (gene BCAM, after six months of LAQ): −1.136
Fold-Change (4.0 vs. 0.0) (gene BCAT1, after six months of LAQ): −1.305
Fold-Change (4.0 vs. 0.0) (gene BGN, after six months of LAQ): −1.252
Fold-Change (4.0 vs. 0.0) (gene BICC1, after six months of LAQ): −1.127
Fold-Change (4.0 vs. 0.0) (gene BIRC5, after six months of LAQ): −1.245
Fold-Change (4.0 vs. 0.0) (gene BMP7, after six months of LAQ): −1.134
Fold-Change (4.0 vs. 0.0) (gene BOK, PBMC, six months of LAQ treatment): −1.111
Fold-Change (4.0 vs. 0.0) (gene BTF3L1, after six months of LAQ): −1.127
Fold-Change (4.0 vs. 0.0) (gene C1QL1, six months of treatment): −1.153
Fold-Change (4.0 vs. 0.0) (gene C1orf175 /// TTC4, six months of treatment): −1.148
Fold-Change (4.0 vs. 0.0) (gene C2orf72): −1.191
Fold-Change (4.0 vs. 0.0) (gene C4A /// C4B /// LOC100292046 /// LOC100294156, after six months of LAQ): −1.248
Fold-Change (4.0 vs. 0.0) (gene C5orf4, after six months of LAQ): −1.46
Fold-Change (4.0 vs. 0.0) (gene C6orf10, PBMC, six months of LAQ treatment): −1.096
Fold-Change (4.0 vs. 0.0) (gene C6orf15): −1.177
Fold-Change (4.0 vs. 0.0) (gene C6orf54, six months of treatment): −1.149
Fold-Change (4.0 vs. 0.0) (gene C6orf145, after six months of LAQ): −1.328
Fold-Change (4.0 vs. 0.0) (gene C6orf155, six months of treatment): −1.147
Fold-Change (4.0 vs. 0.0) (gene C8orf39, after six months of LAQ): −1.273
Fold-Change (4.0 vs. 0.0) (gene C8orf71, PBMC, six months of LAQ treatment): −1.098
Fold-Change (4.0 vs. 0.0) (gene C8orf79, PBMC, six months of LAQ treatment): −1.11
Fold-Change (4.0 vs. 0.0) (gene C9orf116, after six months of LAQ): −1.139
Fold-Change (4.0 vs. 0.0) (gene C10orf10, after six months of LAQ): −1.229
Fold-Change (4.0 vs. 0.0) (gene C15orf2, after six months of LAQ): −1.264
Fold-Change (4.0 vs. 0.0) (gene C16orf71): −1.195
Fold-Change (4.0 vs. 0.0) (gene C17orf53): −1.185
Fold-Change (4.0 vs. 0.0) (gene C19orf26): −1.192
